Assay results taken from publication PMC10287742.

The chains behind the UniProt entries cited, without tags or fusion partners. Where a name states a change or a piece, a line headed by the entry shows the natural chain unless it says otherwise.
UniProt Q6ZNJ1: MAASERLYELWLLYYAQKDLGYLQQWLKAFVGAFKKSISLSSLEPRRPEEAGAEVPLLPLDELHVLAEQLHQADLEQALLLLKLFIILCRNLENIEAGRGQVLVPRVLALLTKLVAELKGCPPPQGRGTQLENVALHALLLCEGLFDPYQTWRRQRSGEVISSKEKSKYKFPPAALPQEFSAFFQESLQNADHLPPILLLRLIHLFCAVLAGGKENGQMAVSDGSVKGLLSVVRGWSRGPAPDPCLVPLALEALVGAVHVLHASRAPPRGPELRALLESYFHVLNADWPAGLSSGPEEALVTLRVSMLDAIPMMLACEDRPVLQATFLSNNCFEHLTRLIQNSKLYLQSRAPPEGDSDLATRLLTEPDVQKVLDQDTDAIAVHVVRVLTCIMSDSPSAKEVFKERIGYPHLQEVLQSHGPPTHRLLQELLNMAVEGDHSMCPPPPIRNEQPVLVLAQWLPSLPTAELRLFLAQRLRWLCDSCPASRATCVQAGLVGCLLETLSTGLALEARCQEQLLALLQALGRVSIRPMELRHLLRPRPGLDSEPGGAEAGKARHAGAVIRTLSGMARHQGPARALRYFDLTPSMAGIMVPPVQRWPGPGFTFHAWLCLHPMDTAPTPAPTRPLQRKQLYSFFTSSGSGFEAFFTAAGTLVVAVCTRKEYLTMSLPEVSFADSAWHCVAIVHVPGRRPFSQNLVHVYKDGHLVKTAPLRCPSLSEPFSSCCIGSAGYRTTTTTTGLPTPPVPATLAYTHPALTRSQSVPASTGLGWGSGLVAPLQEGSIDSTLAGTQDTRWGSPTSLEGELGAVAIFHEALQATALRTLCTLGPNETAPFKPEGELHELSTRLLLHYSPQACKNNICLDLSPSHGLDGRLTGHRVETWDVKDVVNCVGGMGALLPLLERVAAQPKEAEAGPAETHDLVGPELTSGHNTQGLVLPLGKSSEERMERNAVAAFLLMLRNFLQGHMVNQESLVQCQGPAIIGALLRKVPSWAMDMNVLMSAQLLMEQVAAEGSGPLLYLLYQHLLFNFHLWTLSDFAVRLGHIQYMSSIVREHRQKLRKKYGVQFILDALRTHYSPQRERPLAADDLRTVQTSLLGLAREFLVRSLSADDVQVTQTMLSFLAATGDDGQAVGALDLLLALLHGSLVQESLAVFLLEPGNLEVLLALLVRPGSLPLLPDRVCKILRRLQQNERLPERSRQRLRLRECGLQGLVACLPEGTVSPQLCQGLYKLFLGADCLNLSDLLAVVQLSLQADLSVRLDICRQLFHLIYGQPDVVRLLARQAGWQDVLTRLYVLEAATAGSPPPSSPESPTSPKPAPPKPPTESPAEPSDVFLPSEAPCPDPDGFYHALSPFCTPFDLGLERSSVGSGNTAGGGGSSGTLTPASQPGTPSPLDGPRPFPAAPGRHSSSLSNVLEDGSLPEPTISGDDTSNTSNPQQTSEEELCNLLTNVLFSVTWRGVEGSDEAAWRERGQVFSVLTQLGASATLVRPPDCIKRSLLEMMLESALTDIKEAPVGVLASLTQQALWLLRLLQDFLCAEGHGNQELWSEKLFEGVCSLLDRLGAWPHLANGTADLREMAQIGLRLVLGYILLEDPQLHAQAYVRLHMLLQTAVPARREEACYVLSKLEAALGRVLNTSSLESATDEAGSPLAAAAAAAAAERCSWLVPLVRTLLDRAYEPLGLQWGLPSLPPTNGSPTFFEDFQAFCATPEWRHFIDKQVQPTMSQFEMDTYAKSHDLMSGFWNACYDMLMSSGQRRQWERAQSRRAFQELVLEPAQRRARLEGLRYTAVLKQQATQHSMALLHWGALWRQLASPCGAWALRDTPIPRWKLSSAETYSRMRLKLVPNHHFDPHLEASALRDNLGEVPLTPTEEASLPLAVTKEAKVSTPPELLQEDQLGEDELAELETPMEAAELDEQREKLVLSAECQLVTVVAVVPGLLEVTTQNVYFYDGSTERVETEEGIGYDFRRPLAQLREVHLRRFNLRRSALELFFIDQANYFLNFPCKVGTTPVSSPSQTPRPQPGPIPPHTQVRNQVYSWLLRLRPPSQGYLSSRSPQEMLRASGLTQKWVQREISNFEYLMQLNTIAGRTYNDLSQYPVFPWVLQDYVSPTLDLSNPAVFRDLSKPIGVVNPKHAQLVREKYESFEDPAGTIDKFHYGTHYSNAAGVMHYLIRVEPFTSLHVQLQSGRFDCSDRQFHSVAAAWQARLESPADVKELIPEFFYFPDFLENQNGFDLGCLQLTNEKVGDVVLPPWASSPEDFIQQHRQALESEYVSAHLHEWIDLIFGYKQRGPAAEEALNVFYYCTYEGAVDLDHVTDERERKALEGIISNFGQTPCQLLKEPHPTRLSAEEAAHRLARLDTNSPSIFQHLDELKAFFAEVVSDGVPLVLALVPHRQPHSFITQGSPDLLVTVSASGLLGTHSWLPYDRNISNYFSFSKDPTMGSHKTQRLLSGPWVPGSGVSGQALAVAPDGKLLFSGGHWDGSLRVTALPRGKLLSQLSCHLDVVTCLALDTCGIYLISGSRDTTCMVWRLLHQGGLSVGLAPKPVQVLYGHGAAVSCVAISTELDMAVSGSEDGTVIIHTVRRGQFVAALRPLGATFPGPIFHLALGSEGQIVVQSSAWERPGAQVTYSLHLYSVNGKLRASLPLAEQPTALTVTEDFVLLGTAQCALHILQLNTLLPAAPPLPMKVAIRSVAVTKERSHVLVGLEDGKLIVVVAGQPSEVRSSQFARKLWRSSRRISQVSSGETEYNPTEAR
UniProt P51124: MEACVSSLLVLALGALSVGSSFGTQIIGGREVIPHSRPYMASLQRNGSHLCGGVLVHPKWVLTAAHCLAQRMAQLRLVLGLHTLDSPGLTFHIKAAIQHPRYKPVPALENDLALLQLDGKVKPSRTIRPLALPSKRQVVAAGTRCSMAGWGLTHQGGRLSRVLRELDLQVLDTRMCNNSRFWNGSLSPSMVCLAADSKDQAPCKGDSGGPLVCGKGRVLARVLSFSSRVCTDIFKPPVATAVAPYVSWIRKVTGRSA
UniProt P50851: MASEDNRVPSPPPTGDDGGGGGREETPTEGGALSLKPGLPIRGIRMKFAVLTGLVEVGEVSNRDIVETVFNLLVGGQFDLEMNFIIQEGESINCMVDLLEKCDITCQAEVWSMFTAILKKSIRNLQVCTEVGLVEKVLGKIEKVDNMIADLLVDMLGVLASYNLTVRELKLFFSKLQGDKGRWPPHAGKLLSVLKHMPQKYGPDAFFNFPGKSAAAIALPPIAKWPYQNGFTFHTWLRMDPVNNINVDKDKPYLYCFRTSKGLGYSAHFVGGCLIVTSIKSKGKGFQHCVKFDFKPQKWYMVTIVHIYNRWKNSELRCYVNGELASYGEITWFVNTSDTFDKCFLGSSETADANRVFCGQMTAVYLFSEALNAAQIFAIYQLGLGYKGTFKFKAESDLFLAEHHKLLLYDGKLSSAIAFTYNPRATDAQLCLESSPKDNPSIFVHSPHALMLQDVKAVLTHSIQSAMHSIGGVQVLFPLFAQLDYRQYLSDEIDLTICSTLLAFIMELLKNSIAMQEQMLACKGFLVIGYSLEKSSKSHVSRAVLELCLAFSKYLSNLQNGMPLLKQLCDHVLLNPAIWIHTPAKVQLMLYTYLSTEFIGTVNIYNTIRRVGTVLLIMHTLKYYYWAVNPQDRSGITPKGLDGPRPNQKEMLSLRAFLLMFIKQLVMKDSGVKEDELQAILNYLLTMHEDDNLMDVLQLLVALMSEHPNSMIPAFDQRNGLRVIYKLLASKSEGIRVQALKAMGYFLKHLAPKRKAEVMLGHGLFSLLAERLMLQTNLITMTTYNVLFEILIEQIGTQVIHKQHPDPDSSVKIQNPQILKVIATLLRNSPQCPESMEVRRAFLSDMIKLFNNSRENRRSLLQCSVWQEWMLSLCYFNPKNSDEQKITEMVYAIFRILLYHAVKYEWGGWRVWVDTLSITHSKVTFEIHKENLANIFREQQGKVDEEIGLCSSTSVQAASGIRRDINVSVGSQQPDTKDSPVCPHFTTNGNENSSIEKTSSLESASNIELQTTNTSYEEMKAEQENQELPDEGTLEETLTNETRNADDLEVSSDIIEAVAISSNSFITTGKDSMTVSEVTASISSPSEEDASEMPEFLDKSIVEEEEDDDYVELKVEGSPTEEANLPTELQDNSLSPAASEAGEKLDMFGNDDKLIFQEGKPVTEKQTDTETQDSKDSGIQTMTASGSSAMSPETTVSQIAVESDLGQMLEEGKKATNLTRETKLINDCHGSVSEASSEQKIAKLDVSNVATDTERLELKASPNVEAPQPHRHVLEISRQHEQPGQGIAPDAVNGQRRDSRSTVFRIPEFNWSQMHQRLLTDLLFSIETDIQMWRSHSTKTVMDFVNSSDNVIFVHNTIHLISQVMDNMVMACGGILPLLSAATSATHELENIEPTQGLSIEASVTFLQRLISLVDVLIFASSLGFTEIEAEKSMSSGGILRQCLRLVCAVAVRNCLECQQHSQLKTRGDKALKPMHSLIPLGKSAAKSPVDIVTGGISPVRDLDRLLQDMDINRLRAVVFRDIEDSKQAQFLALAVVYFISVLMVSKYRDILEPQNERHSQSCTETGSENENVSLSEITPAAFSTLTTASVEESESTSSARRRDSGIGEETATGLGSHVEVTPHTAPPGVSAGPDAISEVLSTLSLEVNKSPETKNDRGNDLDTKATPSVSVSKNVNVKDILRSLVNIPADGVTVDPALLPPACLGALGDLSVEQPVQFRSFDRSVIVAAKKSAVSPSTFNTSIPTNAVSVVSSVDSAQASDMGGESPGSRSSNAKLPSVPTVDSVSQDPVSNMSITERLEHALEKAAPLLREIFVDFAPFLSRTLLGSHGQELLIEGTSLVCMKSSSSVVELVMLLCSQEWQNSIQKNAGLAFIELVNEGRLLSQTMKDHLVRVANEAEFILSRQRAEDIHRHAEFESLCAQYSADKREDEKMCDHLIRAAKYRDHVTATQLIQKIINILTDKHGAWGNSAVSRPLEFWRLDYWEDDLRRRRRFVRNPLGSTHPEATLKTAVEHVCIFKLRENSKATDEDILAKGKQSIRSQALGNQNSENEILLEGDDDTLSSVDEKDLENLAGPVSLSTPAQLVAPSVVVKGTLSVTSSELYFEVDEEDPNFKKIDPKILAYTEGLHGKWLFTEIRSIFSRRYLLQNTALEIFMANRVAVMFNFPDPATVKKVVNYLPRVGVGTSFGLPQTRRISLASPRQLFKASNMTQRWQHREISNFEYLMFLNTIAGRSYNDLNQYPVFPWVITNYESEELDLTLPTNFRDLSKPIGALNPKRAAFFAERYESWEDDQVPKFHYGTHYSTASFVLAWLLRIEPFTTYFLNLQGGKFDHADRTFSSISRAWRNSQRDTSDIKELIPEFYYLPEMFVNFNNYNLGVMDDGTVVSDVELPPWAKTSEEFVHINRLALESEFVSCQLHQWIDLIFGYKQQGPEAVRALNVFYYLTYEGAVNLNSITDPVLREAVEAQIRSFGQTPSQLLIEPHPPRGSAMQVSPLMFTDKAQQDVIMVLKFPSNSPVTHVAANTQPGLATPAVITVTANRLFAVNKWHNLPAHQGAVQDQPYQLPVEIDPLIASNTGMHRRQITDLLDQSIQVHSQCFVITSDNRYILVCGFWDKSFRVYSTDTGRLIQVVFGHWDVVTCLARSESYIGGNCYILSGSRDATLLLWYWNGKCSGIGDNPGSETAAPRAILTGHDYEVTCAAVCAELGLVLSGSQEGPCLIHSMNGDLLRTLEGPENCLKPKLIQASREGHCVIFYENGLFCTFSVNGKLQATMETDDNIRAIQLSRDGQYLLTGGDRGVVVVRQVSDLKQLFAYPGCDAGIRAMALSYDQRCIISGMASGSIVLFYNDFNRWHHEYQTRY

B1: AP1G2 (γ2 subunit of AP-1 complex) (protein, UniProt O75843 1-785)
chain: MVVPSLKLQDLIEEIRGAKTQAQEREVIQKECAHIRASFRDGDPVHRHRQLAKLLYVHMLGYPAHFGQMECLKLIASSRFTDKRVGYLGAMLLLDERHDAHLLITNSIKNDLSQGIQPVQGLALCTLSTMGSAEMCRDLAPEVEKLLLQPSPYVRKKAILTAVHMIRKVPELSSVFLPPCAQLLHERHHGILLGTITLITELCERSPAALRHFRKVVPQLVHILRTLVTMGYSTEHSISGVSDPFLQVQILRLLRILGRNHEESSETMNDLLAQVATNTDTSRNAGNAVLFETVLTIMDIRSAAGLRVLAVNILGRFLLNSDRNIRYVALTSLLRLVQSDHSAVQRHRPTVVECLRETDASLSRRALELSLALVNSSNVRAMMQELQAFLESCPPDLRADCASGILLAAERFAPTKRWHIDTILHVLTTAGTHVRDDAVANLTQLIGGAQELHAYSVRRLYNALAEDISQQPLVQVAAWCIGEYGDLLLAGNCEEIEPLQVDEEEVLALLEKVLQSHMSLPATRGYALTALMKLSTRLCGDNNRIRQVVSIYGSCLDVELQQRAVEYDTLFRKYDHMRAAILEKMPLVERDGPQADEEAKESKEAAQLSEAAPVPTEPQASQLLDLLDLLDGASGDVQHPPHLDPSPGGALVHLLDLPCVPPPPAPIPDLKVFEREGVQLNLSFIRPPENPALLLITITATNFSEGDVTHFICQAAVPKSLQLQLQAPSGNTVPARGGLPITQLFRILNPNKAPLRLKLRLTYDHFHQSVQEIFEVNNLPVESWQ
B2: CCDC88B (protein, UniProt A6NC98 1-1476)
chain: MEGGKGPRLRDFLSGSLATWALGLAGLVGEAEDSEGEEEEEEEEPPLWLEKRFLRLSDGALLLRVLGIIAPSSRGGPRMLRGLDGPAAWRVWNLNHLWGRLRDFYQEELQLLILSPPPDLQTLGFDPLSEEAVEQLEGVLRLLLGASVQCEHRELFIRHIQGLSLEVQSELAAAIQEVTQPGAGVVLALSGPDPGELAPAELEMLSRSLMGTLSKLARERDLGAQRLAELLLEREPLCLRPEAPSRAPAEGPSHHLALQLANAKAQLRRLRQELEEKAELLLDSQAEVQGLEAEIRRLRQEAQALSGQAKRAELYREEAEALRERAGRLPRLQEELRRCRERLQAAEAYKSQLEEERVLSGVLEASKALLEEQLEAARERCARLHETQRENLLLRTRLGEAHAELDSLRHQVDQLAEENVELELELQRSLEPPPGSPGEAPLAGAAPSLQDEVREAEAGRLRTLERENRELRGLLQVLQGQPGGQHPLLEAPREDPVLPVLEEAPQTPVAFDHSPQGLVQKARDGGPQALDLAPPALDSVLEASAECPQAPDSDPQEAESPLQAAAMDPQASDWSPQESGSPVETQESPEKAGRRSSLQSPASVAPPQGPGTKIQAPQLLGGETEGREAPQGELVPEAWGLRQEGPEHKPGPSEPSSVQLEEQEGPNQGLDLATGQAEAREHDQRLEGTVRDPAWQKPQQKSEGALEVQVWEGPIPGESLASGVAEQEALREEVAQLRRKAEALGDELEAQARKLEAQNTEAARLSKELAQARRAEAEAHREAEAQAWEQARLREAVEAAGQELESASQEREALVEALAAAGRERRQWEREGSRLRAQSEAAEERMQVLESEGRQHLEEAERERREKEALQAELEKAVVRGKELGDRLEHLQRELEQAALERQEFLREKESQHQRYQGLEQRLEAELQAAATSKEEALMELKTRALQLEEELFQLRQGPAGLGPKKRAEPQLVETQNVRLIEVERSNAMLVAEKAALQGQLQHLEGQLGSLQGRAQELLLQSQRAQEHSSRLQAEKSVLEIQGQELHRKLEVLEEEVRAARQSQEETRGQQQALLRDHKALAQLQRRQEAELEGLLVRHRDLKANMRALELAHRELQGRHEQLQAQRASVEAQEVALLAERERLMQDGHRQRGLEEELRRLQSEHDRAQMLLAELSRERGELQGERGELRGRLARLELERAQLEMQSQQLRESNQQLDLSACRLTTQCELLTQLRSAQEEENRQLLAEVQALSRENRELLERSLESRDHLHREQREYLDQLNALRREKQKLVEKIMDQYRVLEPVPLPRTKKGSWLADKVKRLMRPRREGGPPGGLRLGADGAGSTESLGGPPETELPEGREADGTGSPSPAPMRRAQSSLCLRDETLAGGQRRKLSSRFPVGRSSESFSPGDTPRQRFRQRHPGPLGAPVSHSKGPGVGWENSAETLQEHETDANREGPEVQEPEKRPLTPSLSQ

Target: NBEAL2 (human (endogenous in primary T cells)) (UniProt Q6ZNJ1)
Assay: affinity purification with mass spectrometry; anti-NBEAL2 antibody coupled to agarose beads; lysates of activated T cells (Octyl buffer) after reversible cross-linking with DSP; 4 °C overnight; two healthy controls compared with two GPS patients (P6, P7); LC-MS/MS of the IP fractions

binding	Molecule
binds	DOCK8 (from UniProt Q8NF50 1-2099)
binds	DYNC1H1 (from UniProt Q14204 1-4646)
binds	GZMM (from UniProt P51124)
binds	LPS-responsive beige-like anchor protein (LRBA) (from UniProt P50851 1-2863)
binds	B1
binds	B2

Results are given in words; binding and its absence hold for the method and conditions named. Binding seen in cells or lysates may run through a third protein. A yes stands for co-enrichment or nearness to the bait. Other partners may have been found.
